Laboratory results published in US20110091477A1.
No constants are given. Whether binding was seen depends on the method and setting. Some binding calls cover weakened binding; strength is not graded here.

Key:
[1] = target: T1, HGFA (Val373-Ser655) (human) (UniProt Q04756); test: SPR
T1 sequence: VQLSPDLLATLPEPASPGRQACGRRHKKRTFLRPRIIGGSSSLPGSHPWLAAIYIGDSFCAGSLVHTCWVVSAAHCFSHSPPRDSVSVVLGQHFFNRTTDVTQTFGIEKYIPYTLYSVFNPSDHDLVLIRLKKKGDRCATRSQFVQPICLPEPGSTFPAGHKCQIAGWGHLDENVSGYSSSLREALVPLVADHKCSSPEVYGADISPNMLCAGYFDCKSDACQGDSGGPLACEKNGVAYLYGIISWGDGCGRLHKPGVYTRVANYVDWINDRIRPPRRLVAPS

[2] = target: T1, HGFA (Val373-Ser655) (human); test: SPR (BIAcore), Ab40.ΔTrp captured on the chip, HGFA injected in serial dilutions (long injection for steady state)

binding [1]: binds
binding [2]: binds
B1: Ab40.ΔTrp (antibody, V domains shown)
VH: EVQLVESGGGLVQPGGSLRLSCAASGFTFNGTYIHWVRQAPGKGLEWVGGIYPAGGATYYADSVKGRFTISRDNSKNTLYLQMNSLRAEDTAVYYCAKWAWPAFDYWGQGTLVTVSS
VL: DIQMTQSPSSLSASVGDRVTITCRASQDVSTAVAWYQQKPGKAPKLLIYSASFLYSGVPSRFSGSGSGTDFTLTISSLQPEDFATYYCQQSNRAPATFGQGTKVEIKR
